According to PubChem BioAssay AID540275 (National Center for Advancing Translational Sciences (NCATS), 2011):
Screen size: about 320,000 compounds; about 620 (0.19%) were called active. This list was built around the results that the source calls inconclusive (neither active nor inactive); the mix of calls is not that of the screen. Cut-off read from the data, not from the text of the source: active = activation above about 80%; inconclusive = between about 30% and that limit; inactive = weaker than that.

Protein sequences, listed by entry. Tags and fused reporters are not part of them.
UniProt Q8NER1, whole entry, looked up: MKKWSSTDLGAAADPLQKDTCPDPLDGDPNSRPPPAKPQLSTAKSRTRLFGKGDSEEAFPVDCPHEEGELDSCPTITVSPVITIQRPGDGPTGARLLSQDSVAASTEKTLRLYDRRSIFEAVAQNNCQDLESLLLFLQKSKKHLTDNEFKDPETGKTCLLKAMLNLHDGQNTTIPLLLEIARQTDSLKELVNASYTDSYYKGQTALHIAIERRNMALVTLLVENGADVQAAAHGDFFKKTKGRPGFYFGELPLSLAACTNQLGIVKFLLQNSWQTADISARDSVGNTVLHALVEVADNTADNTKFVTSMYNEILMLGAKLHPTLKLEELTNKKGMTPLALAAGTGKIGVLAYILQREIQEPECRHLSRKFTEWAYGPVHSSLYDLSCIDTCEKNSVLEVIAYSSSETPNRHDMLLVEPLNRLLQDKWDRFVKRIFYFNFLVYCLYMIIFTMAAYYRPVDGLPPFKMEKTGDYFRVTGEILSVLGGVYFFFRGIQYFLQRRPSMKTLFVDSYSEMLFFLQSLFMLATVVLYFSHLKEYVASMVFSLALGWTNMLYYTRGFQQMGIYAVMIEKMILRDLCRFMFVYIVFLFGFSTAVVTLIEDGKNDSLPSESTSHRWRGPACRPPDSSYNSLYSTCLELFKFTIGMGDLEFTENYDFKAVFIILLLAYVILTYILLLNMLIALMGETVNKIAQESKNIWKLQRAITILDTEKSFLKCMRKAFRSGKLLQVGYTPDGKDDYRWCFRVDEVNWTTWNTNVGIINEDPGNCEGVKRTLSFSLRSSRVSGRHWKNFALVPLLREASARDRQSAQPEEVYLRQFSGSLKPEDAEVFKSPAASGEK

What follows are compounds tested against Transient receptor potential cation channel subfamily V member 1 (Homo sapiens) (UniProt Q8NER1) (assay: HTS Assay for Compounds that Act as Agonists of the Vanilloid Receptor 1). Conditions: TRPV1-expressing cells, Fluo-8 calcium influx, agonist mode; at 8.33 µM, active compounds read high.
Outline: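 Cells expressing TRPV1 were dye-loaded with Fluo-8 and read kinetically: 10 s baseline, 3 min after compound (agonist portion), then 2 min after EC20 capsaicin (allosteric enhancer portion). Calcium-bound dye fluorescence at 480/520 nm.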
Note: 0% is about no effect.

| SMILES | activation |
| --- | --- |
| O=C(c1ccco1)N1N=C(c2cccs2)CC1c1ccco1 (stereo not given) | inconclusive: 69.6% |
| COc1ccc(C)cc1NC(=O)c1nnn(Cc2cccc(C(F)(F)F)c2)c1N | inactive: 13.2% |
| COc1ccc(NC(=O)c2ccco2)cc1NC(=O)COc1ccccc1 | inconclusive: 32.2% |
| COc1cccc(CN2CCC(C(=O)Nc3ccc(-c4cccc(C)c4)cc3)CC2)c1O | inactive: 3.11% |
| COc1cc(CC(=O)OCC(=O)NCc2ccc(C)cc2)cc(OC)c1OC | inactive: 1.3% |
| Cc1ccc(/C=C/C(=O)c2ccccc2O)cc1 | inconclusive: 42.9% |
| COc1cc2nc(C3CCC3)nc(N3CCN(c4ccccn4)CC3)c2cc1OC | inconclusive: 34.2% |
| CC1(C)C(=O)CC[C@@]2(C)[C@H]1CC[C@@]1(C)CC3=C(CC[C@@H]12)[C@@]1(C)CCC(=O)C(C)(C)[C@@H]1CC3 | inactive: -0.369% |
| CN1CCC(=NNC(=O)CSc2ccc(Cl)cc2)CC1 | inactive: 1.71% |
| COc1ccc(CN(C)C(C)C(=O)Nc2ccc([N+](=O)[O-])cc2Cl)cc1OC (stereo not given) | inactive: 4.74% |
| COc1ccccc1C(=O)Nc1ccnn1C1CCN(C/C=C/c2ccccc2)CC1 | inactive: -1.7% |
| O=C(Nc1ccccc1)c1ccc(S(=O)(=O)N2CCOCC2)cc1 | inconclusive: 54.4% |
| COc1ccc(OC)c(C2CC(c3c(-c4ccccc4)c4cc(Cl)ccc4[nH]c3=O)=NN2S(C)(=O)=O)c1 (stereo not given) | inactive: -6.06% |
| CC1(C)Cc2c(sc3c2c(=N)n(Cc2ccco2)c(=O)n3Cc2ccc(Cl)cc2)CO1 | inconclusive: 33.1% |
| Cc1cccc(C)c1Nc1nnc(SCC(=O)c2ccc3c(c2)NC(=O)CO3)s1 | inactive: 8.71% |
| CC(=O)c1cccc(NC(=O)Nc2ccc3c(c2)N(C)C(=O)CS3)c1 | inactive: 15.2% |
| COc1cccc(NC(=O)[C@@H]2CCCN2C(=O)[C@@H]2Cc3ccccc3CN2C(=O)OC(C)(C)C)c1 | inconclusive: 60.3% |
| COc1ccc(C2C(=O)N(CCc3ccccc3)CC(=O)N2C2CCCCC2)cc1 (stereo not given) | inconclusive: 55% |
| Cc1ccc(C)c(OCC(=O)Nc2ccc3c(c2)OCO3)c1 | inconclusive: 67.1% |
| CCCOc1ccc2oc(=O)c3c(c2c1)CCCN3C(=O)CN1CCc2ccccc2C1 | inconclusive: 68.6% |
| CC[N+]1(CC)CC2=Cc3c(ccc4ccccc34)CC2C1 (stereo not given) | inactive: -2.4% |
| C/C(=N/OCC(=O)Nc1ccccc1)c1cccs1 | inconclusive: 47.7% |
| Cc1nc(-c2ccccn2)nc(N2CCOCC2)c1Cl | inactive: 15.9% |
| O=C(CCC1N=C2c3ccccc3N=C(SCC(=O)NCC3CCCO3)N2C1=O)NCc1ccc(F)cc1 (stereo not given) | inactive: 1.61% |
| CCC(C)(C)n1nnnc1C(c1ccc(C)cc1)N(Cc1ccco1)Cc1cccs1 (stereo not given) | inconclusive: 36.5% |
| CCOC(=O)C1(Cc2ccccc2C)CCCN(C(=O)CCc2c(C)noc2C)C1 (stereo not given) | inconclusive: 43.7% |
| COc1ccc(-n2c(C)nc3cc(C(=O)N4CCOCC4)ccc32)cc1 | inactive: -4.19% |
| O=C(Nc1ccc(Cl)c(S(=O)(=O)N2CCOCC2)c1)c1ccc2c(c1)OCCO2 | inconclusive: 36.6% |

A few values from the entries so far:
activation, CCCOc1ccc2oc(=O)c3c(c2c1)CCCN3C(=O)CN1CCc2ccccc2C1 is entered as inconclusive: 68.6%
activation, CN1CCC(=NNC(=O)CSc2ccc(Cl)cc2)CC1 is entered as inactive: 1.71%
activation, CC(=O)c1cccc(NC(=O)Nc2ccc3c(c2)N(C)C(=O)CS3)c1 is entered as inactive: 15.2%
activation, COc1ccc(C)cc1NC(=O)c1nnn(Cc2cccc(C(F)(F)F)c2)c1N is entered as inactive: 13.2%

The list goes on:

| SMILES | activation |
| --- | --- |
| Cc1ccc(CN2CCSc3ccc(C(=O)NC4CCCC4)cc32)cc1 | inconclusive: 49.7% |
| CCc1ccc(C(=O)Cn2ncc(Cl)c(Cl)c2=O)cc1 | inconclusive: 34.9% |
| CC(=O)Nc1cc(-n2cnnn2)ccc1C | inconclusive: 56.7% |
| CCN1CCN(S(=O)(=O)c2ccc(Cl)c(C(=O)Nc3ccc(OC(F)F)cc3)c2)CC1 | inactive: 0.54% |
| CCC(=O)N1N=C(c2ccc(C)o2)CC1c1ccc(Br)cc1 (stereo not given) | inconclusive: 49.8% |
| CCOc1ccc(N(CC(=O)Nc2cccnc2)S(=O)(=O)c2ccc(C)cc2)cc1 | inconclusive: 71.7% |
| O=C(Nc1ncc2c(n1)-c1ccccc1OC2)c1ccc(F)cc1 | inconclusive: 39.4% |
| COc1cccc(NC(=O)Cc2ccccc2)c1 | inconclusive: 36.4% |
| CCOC(=O)C1CCN(c2cc3c(cc2NC(=O)c2ccccc2F)n(C)c(=O)n3C)CC1 | inconclusive: 38.3% |
| Cc1c(NC(=O)c2ccc(S(=O)(=O)N3CCOCC3)cc2)cccc1[N+](=O)[O-] | inconclusive: 53.8% |
| CCc1ccc2oc(C(=O)NCc3ccc(S(N)(=O)=O)cc3)c(C)c2c1 | inconclusive: 52% |
| CC(NC(=O)Nc1cccnc1)(C(F)(F)F)C(F)(F)F | inconclusive: 51.5% |
| CC(C)(C)c1ccc(C(=O)NNc2ccc(F)cc2F)cc1 | inconclusive: 46% |
| COc1cc(/C=N/NC(=O)c2cc(C)n(-c3ccc(F)cc3)c2C)cc(OC)c1O | inconclusive: 58.5% |
| O=C(Nc1ccc(S(=O)(=O)N2CCCCC2)cc1)c1ccc(F)cc1 | inconclusive: 51.5% |
| COc1ccc(NC(=O)CCCc2ccc(OC)c(C)c2)cc1 | inconclusive: 58.5% |
| Cc1ccc2sc(N3CCN(C(=O)C4=COCCO4)CC3)nc2c1C | inconclusive: 63.2% |
| Cc1cc(S(=O)(=O)NCCC2=CCCCC2)ccc1Br | inconclusive: 36.4% |
| Cc1nc(NCCN2CCOCC2)c2oc3ccccc3c2n1 | inactive: 0.446% |
| CCOC(=O)C1CCN(C(=O)c2ccc3c(=O)n4nc(Nc5cc(C)ccc5C)sc4nc3c2)CC1 | inactive: 1.11% |
| Cc1ccc(N(CC(O)CON=C2c3ccccc3-c3ccccc32)S(C)(=O)=O)cc1 (stereo not given) | inactive: -1.05% |
| O=C(Nc1ccccc1)c1ccc(Br)o1 | inconclusive: 33.5% |
| CC1CCN(C(=O)c2ccc(-c3ccccc3Cl)o2)CC1 | inconclusive: 42.7% |
| COc1ccc(CNC(=O)CCSc2ccc(F)cc2)cc1OC | active: 83.7% |
| CCOC(=O)C1CCN(C(=O)Cc2ccc(-c3ccccc3)cc2)CC1 | inconclusive: 40.8% |
| O=C(Nc1ccc(Cl)cc1)/C(=C/c1ccc([N+](=O)[O-])cc1)c1nc2ccccc2s1 | inconclusive: 36.9% |
| O=C(Nc1ccn(-c2ccccc2)n1)c1ccc(Cl)cc1 | inconclusive: 59.3% |
